Measured values published in patent publication US20200399238A1, “THERAPEUTIC AURONES” (MIDDLE TENNESSEE STATE UNIVERSITY, priority 2016, published 2020).
Some of these results come from one statement about several compounds together.

Each compound was assayed on TNFα (assay: Cytokine response by ELISA, TNFα). Settings: at 40 μM; LPS-stimulated THP-1, ELISA.
Assay type: cell-based, human
Method: Dexamethasone is a synthetic glucocorticoid that suppresses LPS-induced pro-inflammatory cytokine expression and was used as a control (Abraham, Lawrence et al. 2006). Supernatants were collected for human cytokine ELISAs and the manufacturer's protocol was followed to assess the cytokine response. Cells remaining after the supernatant collection were tested for relative viability by Alamar Blue cytotoxicity assay as previously described.

Row | Compound | inhibition of TNFα expression [%]
1 | O=C1/C(=C/c2ccccc2O)Oc2ccccc21 [aurone 4, (Z)-2-(2-hydroxybenzylidene)benzofuran-3(2H)-one] | < 15
2 | COc1cc(/C=C2\Oc3ccccc3C2=O)ccc1O [aurone 7, (Z)-2-(4-hydroxy-3-methoxybenzylidene)benzofuran-3(2H)-one] | < 15
3 | COc1ccc(/C=C2\Oc3ccccc3C2=O)cc1O [aurone 9, (Z)-2-(3-hydroxy-4-methoxybenzylidene)benzofuran-3(2H)-one] | < 15
